From the supplement of paper PMC10849652
Some of the results follow.

By UniProt entry, the sequences of proteins in these tests, tags left out. Where a name states a change or a piece, a line headed by the entry shows the natural chain unless it says otherwise.
UniProt Q04323: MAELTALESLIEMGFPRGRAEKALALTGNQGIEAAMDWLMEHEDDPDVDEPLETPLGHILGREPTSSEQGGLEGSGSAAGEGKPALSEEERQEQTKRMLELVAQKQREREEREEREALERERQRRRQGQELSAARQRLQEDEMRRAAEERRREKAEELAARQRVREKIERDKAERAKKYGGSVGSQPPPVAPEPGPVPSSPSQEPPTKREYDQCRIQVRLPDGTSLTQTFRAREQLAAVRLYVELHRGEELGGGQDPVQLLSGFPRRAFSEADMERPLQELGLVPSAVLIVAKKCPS
UniProt C9J7I0: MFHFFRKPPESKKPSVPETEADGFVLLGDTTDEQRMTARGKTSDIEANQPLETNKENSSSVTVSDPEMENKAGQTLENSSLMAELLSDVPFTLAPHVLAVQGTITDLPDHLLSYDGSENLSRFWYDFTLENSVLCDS
UniProt Q9BTM9: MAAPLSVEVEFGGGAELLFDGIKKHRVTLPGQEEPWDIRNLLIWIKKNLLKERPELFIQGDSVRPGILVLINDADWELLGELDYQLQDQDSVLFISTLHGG
UniProt Q99536: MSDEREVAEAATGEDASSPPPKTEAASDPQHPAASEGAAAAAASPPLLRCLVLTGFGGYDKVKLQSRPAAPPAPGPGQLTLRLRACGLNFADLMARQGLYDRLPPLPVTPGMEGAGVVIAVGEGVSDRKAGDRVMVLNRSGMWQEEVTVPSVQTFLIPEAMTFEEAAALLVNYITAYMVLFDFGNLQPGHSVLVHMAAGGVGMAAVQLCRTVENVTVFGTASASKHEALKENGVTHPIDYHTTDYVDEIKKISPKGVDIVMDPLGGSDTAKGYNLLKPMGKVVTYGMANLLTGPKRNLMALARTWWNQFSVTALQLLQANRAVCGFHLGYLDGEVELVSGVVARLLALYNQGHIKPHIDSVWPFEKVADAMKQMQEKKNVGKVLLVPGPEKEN
UniProt Q96BW1: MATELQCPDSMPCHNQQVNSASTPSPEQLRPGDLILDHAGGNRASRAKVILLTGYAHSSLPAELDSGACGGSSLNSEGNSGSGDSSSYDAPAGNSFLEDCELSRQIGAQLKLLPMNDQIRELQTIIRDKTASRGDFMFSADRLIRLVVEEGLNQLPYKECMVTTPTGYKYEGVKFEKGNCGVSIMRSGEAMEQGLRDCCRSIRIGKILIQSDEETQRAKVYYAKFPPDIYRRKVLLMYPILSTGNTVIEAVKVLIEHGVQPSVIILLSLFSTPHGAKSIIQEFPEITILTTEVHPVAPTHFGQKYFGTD
UniProt P06132: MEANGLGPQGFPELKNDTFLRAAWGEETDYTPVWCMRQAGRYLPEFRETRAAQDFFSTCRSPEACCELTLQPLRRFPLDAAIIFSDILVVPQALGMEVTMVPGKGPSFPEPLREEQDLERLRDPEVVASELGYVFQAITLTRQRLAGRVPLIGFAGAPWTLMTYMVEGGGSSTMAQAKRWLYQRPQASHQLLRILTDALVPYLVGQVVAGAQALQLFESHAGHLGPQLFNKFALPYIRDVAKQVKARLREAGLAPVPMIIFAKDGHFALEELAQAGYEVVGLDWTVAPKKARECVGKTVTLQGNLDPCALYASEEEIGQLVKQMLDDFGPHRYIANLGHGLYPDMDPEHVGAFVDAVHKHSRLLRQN
UniProt Q7Z3V4: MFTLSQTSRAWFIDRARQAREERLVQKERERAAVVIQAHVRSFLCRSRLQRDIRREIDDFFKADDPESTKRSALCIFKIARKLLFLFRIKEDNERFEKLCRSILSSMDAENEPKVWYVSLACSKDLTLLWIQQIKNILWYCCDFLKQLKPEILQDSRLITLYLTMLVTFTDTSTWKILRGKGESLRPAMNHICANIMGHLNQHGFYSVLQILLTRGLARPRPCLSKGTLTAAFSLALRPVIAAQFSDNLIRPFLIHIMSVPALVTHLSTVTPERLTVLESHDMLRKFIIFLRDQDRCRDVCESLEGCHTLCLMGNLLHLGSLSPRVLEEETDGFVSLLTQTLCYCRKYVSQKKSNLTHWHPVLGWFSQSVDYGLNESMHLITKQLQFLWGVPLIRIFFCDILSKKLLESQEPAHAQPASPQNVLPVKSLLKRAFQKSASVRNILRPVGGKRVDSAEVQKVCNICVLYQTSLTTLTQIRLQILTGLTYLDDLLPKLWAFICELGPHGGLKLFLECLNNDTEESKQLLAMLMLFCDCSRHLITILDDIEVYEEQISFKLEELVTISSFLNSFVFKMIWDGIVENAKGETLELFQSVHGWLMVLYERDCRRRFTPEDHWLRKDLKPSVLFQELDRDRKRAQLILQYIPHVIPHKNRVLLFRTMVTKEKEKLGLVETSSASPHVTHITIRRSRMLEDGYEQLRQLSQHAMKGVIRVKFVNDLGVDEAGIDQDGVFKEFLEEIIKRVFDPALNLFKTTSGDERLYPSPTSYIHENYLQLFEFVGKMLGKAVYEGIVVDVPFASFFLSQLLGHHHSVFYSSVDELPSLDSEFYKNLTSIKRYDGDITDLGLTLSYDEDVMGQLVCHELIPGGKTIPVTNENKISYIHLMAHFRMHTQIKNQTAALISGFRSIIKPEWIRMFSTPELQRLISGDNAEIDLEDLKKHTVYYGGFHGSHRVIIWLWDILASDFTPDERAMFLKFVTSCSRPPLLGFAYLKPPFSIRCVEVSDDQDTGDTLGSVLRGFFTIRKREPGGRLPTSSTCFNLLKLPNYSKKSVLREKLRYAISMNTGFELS
UniProt P13051, whole entry, looked up: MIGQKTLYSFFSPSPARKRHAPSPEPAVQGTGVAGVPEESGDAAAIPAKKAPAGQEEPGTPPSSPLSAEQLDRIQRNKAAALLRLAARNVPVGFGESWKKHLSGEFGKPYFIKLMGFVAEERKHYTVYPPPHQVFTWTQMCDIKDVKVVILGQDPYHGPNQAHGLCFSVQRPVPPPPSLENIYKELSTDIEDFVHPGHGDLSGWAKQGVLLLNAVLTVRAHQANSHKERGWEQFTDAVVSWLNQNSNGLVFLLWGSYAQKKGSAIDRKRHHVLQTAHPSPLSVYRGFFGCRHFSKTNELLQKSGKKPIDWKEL
UniProt O75317, whole entry, looked up: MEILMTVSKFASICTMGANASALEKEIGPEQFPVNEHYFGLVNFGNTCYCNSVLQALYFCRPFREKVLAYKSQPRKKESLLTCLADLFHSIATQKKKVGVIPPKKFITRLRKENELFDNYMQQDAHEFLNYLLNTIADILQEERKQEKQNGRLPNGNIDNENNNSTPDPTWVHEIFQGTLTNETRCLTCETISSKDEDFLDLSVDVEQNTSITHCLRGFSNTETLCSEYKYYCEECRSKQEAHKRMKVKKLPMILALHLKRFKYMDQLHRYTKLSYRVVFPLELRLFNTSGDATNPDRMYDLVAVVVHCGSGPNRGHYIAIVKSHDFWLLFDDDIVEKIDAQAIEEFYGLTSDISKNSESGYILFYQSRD
UniProt Q9H347: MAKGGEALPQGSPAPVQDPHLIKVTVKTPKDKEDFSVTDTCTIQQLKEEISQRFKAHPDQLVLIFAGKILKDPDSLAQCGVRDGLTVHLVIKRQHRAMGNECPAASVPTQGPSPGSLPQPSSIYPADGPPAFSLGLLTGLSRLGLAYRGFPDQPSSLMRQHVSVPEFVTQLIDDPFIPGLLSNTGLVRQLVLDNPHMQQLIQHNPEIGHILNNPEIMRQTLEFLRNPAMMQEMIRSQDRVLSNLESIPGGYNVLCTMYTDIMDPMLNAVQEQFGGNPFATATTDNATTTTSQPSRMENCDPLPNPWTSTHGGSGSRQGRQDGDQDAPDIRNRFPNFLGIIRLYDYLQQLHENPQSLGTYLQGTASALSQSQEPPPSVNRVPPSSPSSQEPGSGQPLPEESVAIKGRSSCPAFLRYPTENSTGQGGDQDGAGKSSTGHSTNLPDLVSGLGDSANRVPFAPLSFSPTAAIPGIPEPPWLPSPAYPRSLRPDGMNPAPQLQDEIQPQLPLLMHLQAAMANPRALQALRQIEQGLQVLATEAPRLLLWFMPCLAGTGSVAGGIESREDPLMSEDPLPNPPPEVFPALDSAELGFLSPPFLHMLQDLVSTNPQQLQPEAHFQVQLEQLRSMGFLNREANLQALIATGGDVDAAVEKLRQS
UniProt P15498: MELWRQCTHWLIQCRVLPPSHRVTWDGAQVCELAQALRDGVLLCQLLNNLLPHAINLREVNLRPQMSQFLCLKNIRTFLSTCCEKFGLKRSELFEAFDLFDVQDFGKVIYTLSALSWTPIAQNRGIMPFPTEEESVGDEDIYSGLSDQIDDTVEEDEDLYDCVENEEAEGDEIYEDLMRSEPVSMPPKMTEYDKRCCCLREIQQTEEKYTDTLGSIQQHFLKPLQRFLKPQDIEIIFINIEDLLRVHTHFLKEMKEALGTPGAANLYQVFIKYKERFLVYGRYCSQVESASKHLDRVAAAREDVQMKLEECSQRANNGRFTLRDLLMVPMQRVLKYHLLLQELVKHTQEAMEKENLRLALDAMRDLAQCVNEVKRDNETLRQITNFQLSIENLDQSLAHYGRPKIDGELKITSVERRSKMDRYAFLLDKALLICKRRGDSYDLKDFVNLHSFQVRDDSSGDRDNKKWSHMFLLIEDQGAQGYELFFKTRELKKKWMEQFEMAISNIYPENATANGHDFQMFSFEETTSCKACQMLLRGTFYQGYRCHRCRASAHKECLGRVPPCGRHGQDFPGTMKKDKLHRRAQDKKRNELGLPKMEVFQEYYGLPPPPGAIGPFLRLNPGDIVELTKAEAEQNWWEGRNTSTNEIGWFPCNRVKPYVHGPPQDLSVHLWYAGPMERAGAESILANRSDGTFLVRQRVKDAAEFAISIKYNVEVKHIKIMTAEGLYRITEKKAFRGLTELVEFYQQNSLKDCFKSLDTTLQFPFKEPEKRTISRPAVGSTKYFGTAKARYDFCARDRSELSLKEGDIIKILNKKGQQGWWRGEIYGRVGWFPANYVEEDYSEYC
UniProt Q92738: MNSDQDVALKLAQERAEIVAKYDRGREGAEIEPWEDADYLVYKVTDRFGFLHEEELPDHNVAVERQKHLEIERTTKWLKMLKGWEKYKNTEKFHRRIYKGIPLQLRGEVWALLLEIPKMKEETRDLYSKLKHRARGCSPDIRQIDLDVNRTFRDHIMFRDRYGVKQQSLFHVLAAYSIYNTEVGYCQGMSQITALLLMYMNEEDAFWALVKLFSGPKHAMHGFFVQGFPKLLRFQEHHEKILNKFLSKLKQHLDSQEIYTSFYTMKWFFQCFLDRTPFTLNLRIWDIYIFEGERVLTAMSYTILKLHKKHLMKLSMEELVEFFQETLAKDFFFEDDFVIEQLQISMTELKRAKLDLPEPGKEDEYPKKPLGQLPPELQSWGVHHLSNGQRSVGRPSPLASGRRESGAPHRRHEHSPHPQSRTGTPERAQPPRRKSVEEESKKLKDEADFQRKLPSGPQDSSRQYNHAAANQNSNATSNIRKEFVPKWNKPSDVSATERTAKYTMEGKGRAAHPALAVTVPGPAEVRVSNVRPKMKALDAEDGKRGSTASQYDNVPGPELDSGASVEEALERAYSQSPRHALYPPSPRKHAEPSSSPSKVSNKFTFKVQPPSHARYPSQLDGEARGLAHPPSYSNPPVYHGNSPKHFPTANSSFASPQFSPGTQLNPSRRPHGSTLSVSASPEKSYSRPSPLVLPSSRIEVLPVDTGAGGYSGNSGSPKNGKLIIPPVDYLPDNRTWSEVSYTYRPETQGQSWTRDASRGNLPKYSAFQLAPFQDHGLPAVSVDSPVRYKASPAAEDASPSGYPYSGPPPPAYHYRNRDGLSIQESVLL

Compound: C1=CC=C(C=C1)[C@H](COC2=CC3=C(C=C2)NC(=O)N3)NC(=O)C4=CC=CN(C4=O)CC5=CC(=C(C=C5)F)F
Experiment: log2 fold change, soluble protein after heating vs DMSO (PISA); higher = thermal stabilisation; K562 cells, 10 uM, 30 min; active = over 0.2 and 3.5 SD of the protein, either way, in both replicates (recomputed)
Method in brief: (§1)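 Soluble protein was defined as the supernatant after 21,000xg for 90 min. It came from K562 cells at 2×10^6 cells/mL given 10 μM compound for 30 min, heated in aliquots for 3 min across 48°C-58°C, pooled, and extracted in PBS with 0.5% NP-40 at 4°C, and was quantified by TMTpro 16plex LC-MS/MS with equalised channel sums. Thermal stability against control samples, from duplicates, is reported as log2 fold change.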

Target	log2 fold change
UBXN1 (UniProt Q04323)	inactive: -0.004
UMAD1 (UniProt C9J7I0)	inactive: 0.133
USP20 (UniProt Q9Y2K6)	inactive: 0.12
UQCC3 (UniProt Q6UW78)	inactive: -0.453
UFC1 (UniProt Q9Y3C8)	inactive: 0.006
VASN (UniProt Q6EMK4)	inactive: 0.403
UBTF (UniProt P17480)	inactive: -0.206
UNC93B1 (UniProt Q9H1C4)	inactive: 0.055
UBR1 (UniProt Q8IWV7)	inactive: -0.004
URB2 (UniProt Q14146)	inactive: -0.017
URM1 isoform 2 (UniProt Q9BTM9)	inactive: -0.005
VAT1 (UniProt Q99536)	inactive: -0.021
UPRT (UniProt Q96BW1)	inactive: -0.076
VAMP3 (UniProt Q15836)	inactive: 0.077
USP54 (UniProt Q70EL1)	inactive: -0.109
USF3 (UniProt Q68DE3)	inactive: -0.015
UROD (UniProt P06132)	inactive: 0.02
UBE3B (UniProt Q7Z3V4)	inactive: -0.081
UNG (UniProt P13051)	inactive: -0.132
UNC13A (UniProt Q9UPW8)	inactive: -0.032
USF1 (UniProt P22415)	inactive: -0.04

Compound: CC1=C(SC2=C1C(=N[C@H](C3=NN=C(N32)C)CC(=O)N)C4=CC=C(C=C4)Cl)C
Experiment: as above
Method in brief: as §1

Target	log2 fold change
USP12 (UniProt O75317)	inactive: 0.02
UBXN1 (UniProt Q04323)	inactive: 0.042
UMAD1 (UniProt C9J7I0)	inactive: 0.004
USP20 (UniProt Q9Y2K6)	inactive: -0.167
UBQLN3 (UniProt Q9H347)	inactive: -0.042
UQCC3 (UniProt Q6UW78)	inactive: -0.072
UFC1 (UniProt Q9Y3C8)	inactive: 0
UBN2 (UniProt Q6ZU65)	inactive: 0.037
UBTF (UniProt P17480)	inactive: 0.036
USP11 (UniProt P51784)	inactive: 0.024
USB1 (UniProt Q9BQ65)	inactive: 0.256
ULBP1 (UniProt Q9BZM6)	inactive: 0.014
UNC93B1 (UniProt Q9H1C4)	inactive: -0.026
VAV1 (UniProt P15498)	inactive: 0.133
USP27X (UniProt A6NNY8)	inactive: 0.134
USP6NL isoform 2 (UniProt Q92738)	inactive: 0.121
UBR1 (UniProt Q8IWV7)	inactive: -0.824
URB2 (UniProt Q14146)	inactive: -0.096
UTP23 (UniProt Q9BRU9)	inactive: -0.193
VAT1 (UniProt Q99536)	inactive: 0.01
UPRT (UniProt Q96BW1)	inactive: -0.064
VAMP3 (UniProt Q15836)	inactive: -0.286
USP32 (UniProt Q8NFA0)	inactive: -0.19
UROD (UniProt P06132)	inactive: 0.022
UBE3B (UniProt Q7Z3V4)	inactive: -0.147
UNG (UniProt P13051)	inactive: 0.097
ULBP2 (UniProt Q9BZM5)	inactive: 0.002

Compound: CC1=C2C(=CC=C1)N=C(N(C2=O)C3=CC=CC=C3C)CN4C=NC5=C(N=CN=C54)N
Experiment: as above
Method in brief: as §1

Target	log2 fold change
USP12 (UniProt O75317)	inactive: -0.032
UBXN1 (UniProt Q04323)	inactive: 0.084
USP20 (UniProt Q9Y2K6)	inactive: 0.052
UBQLN3 (UniProt Q9H347)	inactive: 0.173
USP33 (UniProt Q8TEY7)	inactive: 0.079
UFC1 (UniProt Q9Y3C8)	inactive: -0.049
UBN2 (UniProt Q6ZU65)	inactive: 0.2
VASN (UniProt Q6EMK4)	inactive: -0.001
USB1 (UniProt Q9BQ65)	inactive: -0.159
ULBP1 (UniProt Q9BZM6)	inactive: -0.001
VAV1 (UniProt P15498)	inactive: 0.095
USP46 (UniProt P62068)	inactive: 0.077
USP6NL isoform 2 (UniProt Q92738)	inactive: 0.158
UNC5B (UniProt Q8IZJ1)	inactive: -0.076
URM1 isoform 2 (UniProt Q9BTM9)	inactive: 0.093
VAT1 (UniProt Q99536)	inactive: -0.022
UPRT (UniProt Q96BW1)	inactive: 0.061
USP54 (UniProt Q70EL1)	inactive: 0.013
USF3 (UniProt Q68DE3)	inactive: 0.185
UROD (UniProt P06132)	inactive: 0.02
UNG (UniProt P13051)	inactive: 0.137
USF1 (UniProt P22415)	inactive: 0.155

Compound: Cc1sc2c(c1C)C(c1ccc(Cl)cc1)=N[C@@H](CC(=O)OC(C)(C)C)c1nnc(C)n1-2
Experiment: as above
Method in brief: as §1

Target	log2 fold change
USP12 (UniProt O75317)	inactive: -0.258
UBXN1 (UniProt Q04323)	inactive: 0.004
UMAD1 (UniProt C9J7I0)	inactive: 0.064
UBQLN3 (UniProt Q9H347)	inactive: 0.049
USP33 (UniProt Q8TEY7)	inactive: -0.067
UTP20 (UniProt O75691)	inactive: 0.034
UFC1 (UniProt Q9Y3C8)	inactive: -0.005
USB1 (UniProt Q9BQ65)	inactive: -0.035
ULBP1 (UniProt Q9BZM6)	inactive: -0.036
VAV1 (UniProt P15498)	inactive: 0.072
USP27X (UniProt A6NNY8)	inactive: -0.25
USP6NL isoform 2 (UniProt Q92738)	inactive: 0.029
UNC5B (UniProt Q8IZJ1)	inactive: -0.107
URM1 isoform 2 (UniProt Q9BTM9)	inactive: 0.082
UPP1 (UniProt Q16831)	inactive: 0.182
VAT1 (UniProt Q99536)	inactive: -0.004
VAMP3 (UniProt Q15836)	inactive: 0.019
USP32 (UniProt Q8NFA0)	inactive: -0.001
USP54 (UniProt Q70EL1)	inactive: 0.056
UROD (UniProt P06132)	inactive: -0.015
UBE3B (UniProt Q7Z3V4)	inactive: -0.214
UNG (UniProt P13051)	inactive: -0.12
ULBP2 (UniProt Q9BZM5)	inactive: -0.139
UNC13A (UniProt Q9UPW8)	inactive: -0.021
UHRF1 isoform 2 (UniProt Q96T88)	inactive: 0.008
